The results are deposited in PubChem (AID1053133; Broad Institute, 2014).

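Plate-reader measure of the Venus reporter marking one vaccinia stage in infected cells (the cell line is not named here); read time unknown.
The test concentration is not given here.
Percent change in Venus reporter signal; lower (more negative) values mean stronger inhibition of that viral stage.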

Values are in %.
The controls that fix the scale are not given here.
Common to all entries: measured here: Venus reporter, other viral stage.
Part of the compounds only, not a random draw; the main read-out is not listed here.

Compound,activity change (Venus) (%)
CN(C)C(=O)c1cccc(-c2ccc3c(c2)[C@H]2[C@H](CCN2C(=O)c2ccccc2F)[C@H](CO)N3)c1,-25.89
C[C@@H]1CCCCO[C@H](CN(C)S(=O)(=O)c2cccs2)[C@H](C)CN([C@@H](C)CO)C(=O)c2cc(NC(=O)CCC(F)(F)F)ccc2O1,-29.1
C[C@@H]1CN([C@@H](C)CO)C(=O)Cc2cc(NS(=O)(=O)c3ccc(F)cc3)ccc2O[C@@H]1CN(C)Cc1ccc(C(F)(F)F)cc1,-29.15
OC[C@H]1[C@H](c2ccc(-c3ccc(F)cc3)cc2)[C@H]2CN(CCC(F)(F)F)CCCCN21,-38.04
C[C@@H]1CCCCO[C@H](CN(C)Cc2ccccc2)[C@@H](C)CN([C@@H](C)CO)C(=O)c2cc(NS(=O)(=O)c3ccccc3)ccc2O1,-49.01
CO[C@@H]1CN(C)C(=O)c2cc(NC(=O)c3ccc(-c4ccccc4)cc3)ccc2OC[C@H](C)NC[C@@H]1C,-62.07
Cc1ccccc1-c1ccccc1[C@H]1[C@@H](C#N)N(C(=O)c2ccccc2)[C@@H]1CO,-73.18
COc1ccc(S(=O)(=O)N2C[C@@H](O)COC[C@H]3O[C@H](CC(=O)NCc4ccc(Cl)c(Cl)c4)CC[C@@H]32)cc1,-27.91
COc1ccc([Si](C)(C)[C@H]2[C@H](CCO)O[C@@]3(C(=O)N(Cc4ccccc4)c4ccc(N5CCC5=O)cc43)[C@@H]2C)cc1,-46.66
C/C=C/c1ccc2c(c1)O[C@@H](CN(C)Cc1ccc(F)cc1)[C@H](C)CN([C@H](C)CO)S2(=O)=O,-72.05
COc1ccc(S(=O)(=O)N(C)C[C@H]2Oc3cc(C#CC4CCCC4)ccc3S(=O)(=O)N([C@H](C)CO)C[C@@H]2C)cc1,-36.85
C[C@H]1CN([C@@H](C)CO)C(=O)c2cccc(NS(=O)(=O)c3ccc(F)cc3)c2O[C@@H]1CN(C)S(=O)(=O)c1ccc(Cl)cc1,-39.87
O=C(Nc1cccc(F)c1)N1CCCCN2[C@@H](CO)[C@H](c3ccc(C#Cc4ccccc4)cc3)[C@@H]2C1,-42.58
O=C(C1CCCC1)N1CC2(C1)[C@H](c1ccccc1)[C@@H](CO)N2CC1CC1,-46.73
Cc1ccc(S(=O)(=O)N(C)C[C@H]2OCc3ccccc3-c3c(n(C)c4ccccc34)C(=O)N([C@@H](C)CO)C[C@@H]2C)cc1,-43.78
Cc1ccc(S(=O)(=O)Nc2ccc3c(c2)C(=O)N([C@@H](C)CO)C[C@H](C)[C@H](CN(C)Cc2ccc(C(F)(F)F)cc2)OCCCC[C@H](C)O3)cc1,-70.51
C[C@H](CO)N1C[C@H](C)[C@H](CN(C)S(=O)(=O)c2ccc(Cl)cc2)Oc2ccc(NC(=O)Nc3ccc(C(F)(F)F)cc3)cc2CC1=O,-50.13
N#C[C@@H]1[C@H](c2ccccc2)[C@H](CO)N1C(=O)Nc1cccc(F)c1,-31.89
COc1ccc(S(=O)(=O)N[C@H]2CC[C@H](CC(=O)N3CCC(Cc4ccccc4)CC3)O[C@@H]2CO)cc1,-26.21
C[C@@H]1CN([C@H](C)CO)C(=O)Cc2cc(NC(=O)CCCCCC(=O)Nc3ccccc3N)ccc2O[C@H]1CN(C)Cc1ccc(Oc2ccccc2)cc1,-24.57
COc1ccc2c3c(n(C)c2c1)[C@H](CO)N(C(=O)C1CC1)CC31CN(Cc2cccc(F)c2)C1,-44.16
C/C=C/c1ccc2c(c1)O[C@H](CN(C)S(=O)(=O)c1ccc(F)cc1)[C@H](C)CN([C@H](C)CO)S2(=O)=O,-33.02
C[C@@H]1CN([C@H](C)CO)C(=O)c2cc(NC(=O)C3CCCCC3)ccc2O[C@@H](C)CCCCO[C@H]1CN(C)S(=O)(=O)c1cccs1,-37.79
C[C@H](CO)N1C[C@H](C)[C@@H](CN(C)Cc2ccc(Oc3ccccc3)cc2)Oc2ccc(NC(=O)Nc3ccccc3)cc2CC1=O,-20.41
C[C@@H]1CN([C@@H](C)CO)S(=O)(=O)c2ccc(C#Cc3ccncc3)cc2O[C@H]1CN(C)C(=O)c1ccncc1,-18.88
COc1cccc(NC(=O)N2CC(=O)N3[C@H](CO)[C@@H](c4ccc(C5=CCCC5)cc4)[C@H]3C2)c1,-33.04
C[C@@H]1CN([C@H](C)CO)S(=O)(=O)c2ccc(C3=CCCCC3)cc2O[C@@H]1CN(C)C(=O)CN(C)C,-41.38
CN1c2ccc(-c3cccc(F)c3)cc2[C@@H]2[C@@H](CCN2C(=O)c2ccccc2F)[C@@H]1CO,-40.52
C[C@H](CO)N1C[C@H](C)[C@@H](CN(C)S(=O)(=O)c2ccc(C(F)(F)F)cc2)OCc2ccccc2-c2c(n(C)c3ccccc23)C1=O,-30.74
C[C@H](CO)N1C[C@H](C)[C@H](CN(C)C(=O)Nc2ccccc2C(F)(F)F)OCc2ccccc2-c2c(n(C)c3ccccc23)C1=O,-67.53
C[C@@H]1CN([C@@H](C)CO)C(=O)Cc2cc(NC(=O)CCCCCC(=O)Nc3ccccc3N)ccc2O[C@@H]1CN(C)Cc1ccc(Cl)c(Cl)c1,-31.67
COc1ccccc1NC(=O)N1CC(=O)N2[C@H](CO)[C@@H](c3ccc(-c4ccccc4)cc3)[C@H]2C1,-38.64
O=C(C[C@@H]1CC[C@@H]2[C@H](COC[C@H](O)CN2C(=O)Nc2ccc(Cl)c(Cl)c2)O1)NCc1ccc(Cl)cc1,-43.79
O=C(Cc1ccccc1)N1CC(=O)N2[C@H](CO)[C@@H](c3ccc(-c4ccc(F)cc4)cc3)[C@H]2C1,-36.65
C[C@H](CO)N1C[C@H](C)[C@@H](CN(C)Cc2ccc(F)cc2)Oc2ncc(C3=CCCC3)cc2C1=O,-32.44
C[C@@H]1CCCCO[C@@H](CN(C)Cc2ccc3c(c2)OCO3)[C@@H](C)CN([C@@H](C)CO)C(=O)c2cc(NC(=O)c3ccccc3)ccc2O1,-31.59
O=C(C[C@H]1CC[C@H]2[C@@H](COC[C@@H](O)CN2C(=O)c2ccccc2)O1)Nc1ccc(-c2ccccc2)cc1,-24.74
CC(C)NC(=O)N1[C@H](C#N)[C@H](c2ccc(C#CC3CCCCC3)cc2)[C@@H]1CO,-43.06
CCC(=O)N1CC(=O)N2[C@H](C1)[C@H](c1ccc(C#CC3CCCC3)cc1)[C@@H]2CO,-48.95
C[C@H]1CN([C@@H](C)CO)C(=O)c2cc(C#CCN(C)C)cnc2O[C@@H]1CN(C)Cc1ccc(-c2ccccc2)cc1,-52.28
C[C@@H]1CN([C@@H](C)CO)C(=O)c2cc(NS(=O)(=O)c3ccc(Cl)cc3)ccc2O[C@@H]1CN(C)Cc1ccc(Oc2ccccc2)cc1,-70.42
O=C(C[C@@H]1C=C[C@H](NS(=O)(=O)c2ccc(F)cc2)[C@H](CO)O1)NCc1ccc(Cl)c(Cl)c1,-22.73
CCCNC(=O)N1CC2(CCN(S(=O)(=O)c3cccc(OC)c3)CC2)c2c(n(C)c3cc(OC)ccc23)[C@@H]1CO,-40.39
C[C@@H]1CN([C@@H](C)CO)C(=O)c2cc(NS(=O)(=O)c3ccccc3)ccc2O[C@@H](C)CCCCO[C@@H]1CN(C)Cc1ccc(C(F)(F)F)cc1,-59.17
C[C@H](CO)N1C[C@H](C)[C@@H](CN(C)Cc2ccc(-c3ccccc3)cc2)Oc2cc(C#C[C@@H](C)O)ccc2S1(=O)=O,-36.57
COc1cccc(C#Cc2cnc3c(c2)C(=O)N([C@H](C)CO)C[C@@H](C)[C@H](CN(C)C(=O)C2CCCCC2)O3)c1,-52.19
O=C(c1ccccc1F)N1CC(=O)N2[C@H](C1)[C@@H](c1ccc(C#Cc3ccc(F)cc3)cc1)[C@@H]2CO,-53.21
O=C(c1ccc2c(c1)OCO2)N1CC(=O)N2[C@@H](CO)[C@@H](c3ccc(C#CCC4CCCC4)cc3)[C@@H]2C1,-78.28
C[C@H](CO)N1C[C@H](C)[C@H](CN(C)CC2CCCCC2)OCCCC[C@H](C)Oc2ccc(NS(=O)(=O)c3ccc(F)cc3)cc2C1=O,-68.13
C[C@H](CO)N1C[C@H](C)[C@H](CN(C)S(=O)(=O)c2ccc(Cl)cc2)OCc2ccccc2-c2ccccc2C1=O,-43.82
C[C@@H]1CN([C@H](C)CO)S(=O)(=O)c2ccc(C#CC3CCCC3)cc2O[C@@H]1CN(C)C(=O)Nc1cc(F)ccc1F,-62.18